A short description of this data set: general procedure: solution-phase peptide synthesis; DIC/HOBt; EDC.HCl/HOBt; TBTU/HOBt; DIC/Oxyma; ClCO2iBu/NMM; optionally with CuCl. Particulars: coupling step.

This passage reports step yield results from patent publication US20160215016 (published 2016).

Take Morph-Gly-Homophe-Leu-Phe-OBn: the step yield is given as 99%.
